Source: publication doi:10.1101/2021.12.20.473452
Results are given in words; binding and its absence hold for the method and conditions named. Binding seen in cells or lysates may run through a third protein. Binding calls can cover weak binding; strength is not graded here. Where a sequence is shown, tags or fusion partners need not be part of it.

How the values were obtained:
Myc-tagged DDX50 = biological target: T1, Myc-tagged DDX50 (UniProt Q9BQ39); experiment: pull-down
T1 sequence: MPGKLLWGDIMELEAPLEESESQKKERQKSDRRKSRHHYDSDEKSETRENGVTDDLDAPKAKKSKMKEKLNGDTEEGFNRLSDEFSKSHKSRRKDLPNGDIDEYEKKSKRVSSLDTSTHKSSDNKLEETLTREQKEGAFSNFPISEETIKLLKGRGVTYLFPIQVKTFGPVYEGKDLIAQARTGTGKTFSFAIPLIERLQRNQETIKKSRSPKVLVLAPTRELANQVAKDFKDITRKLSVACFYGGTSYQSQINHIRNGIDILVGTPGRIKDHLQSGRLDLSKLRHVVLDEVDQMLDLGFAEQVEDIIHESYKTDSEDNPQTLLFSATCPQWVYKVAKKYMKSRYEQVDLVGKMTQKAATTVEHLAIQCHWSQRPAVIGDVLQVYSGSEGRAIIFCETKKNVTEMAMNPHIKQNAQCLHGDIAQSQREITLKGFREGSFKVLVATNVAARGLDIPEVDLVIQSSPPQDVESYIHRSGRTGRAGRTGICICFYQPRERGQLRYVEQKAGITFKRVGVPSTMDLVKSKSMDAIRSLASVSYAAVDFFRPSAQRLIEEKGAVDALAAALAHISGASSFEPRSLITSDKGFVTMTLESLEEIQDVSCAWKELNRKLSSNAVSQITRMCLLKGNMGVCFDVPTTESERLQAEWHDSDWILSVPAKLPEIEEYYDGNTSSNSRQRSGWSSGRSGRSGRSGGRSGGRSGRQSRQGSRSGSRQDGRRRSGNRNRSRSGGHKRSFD

Myc-tagged DDX56 = biological target: T2, Myc-tagged DDX56 (UniProt Q9NY93); experiment: pull-down
T2 sequence: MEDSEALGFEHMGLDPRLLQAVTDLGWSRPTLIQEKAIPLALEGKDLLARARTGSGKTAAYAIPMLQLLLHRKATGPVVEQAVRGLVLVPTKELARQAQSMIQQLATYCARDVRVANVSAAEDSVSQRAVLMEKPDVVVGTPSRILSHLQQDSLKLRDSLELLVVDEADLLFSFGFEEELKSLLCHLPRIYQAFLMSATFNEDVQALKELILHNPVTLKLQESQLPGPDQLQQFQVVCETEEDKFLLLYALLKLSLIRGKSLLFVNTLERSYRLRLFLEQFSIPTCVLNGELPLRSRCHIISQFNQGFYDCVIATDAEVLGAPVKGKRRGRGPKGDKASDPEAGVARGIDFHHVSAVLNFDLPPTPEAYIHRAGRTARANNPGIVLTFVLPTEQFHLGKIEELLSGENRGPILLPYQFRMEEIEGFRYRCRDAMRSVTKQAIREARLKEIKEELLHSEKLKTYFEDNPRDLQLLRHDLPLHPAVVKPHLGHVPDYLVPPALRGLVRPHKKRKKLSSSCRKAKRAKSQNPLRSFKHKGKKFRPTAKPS

binding (Myc-tagged DDX50): binds
binding (Myc-tagged DDX56): binds
Substance: recombinant FLAG-tagged CK1γ2 (enzyme)
